According to PubChem BioAssay AID493014 (National Center for Advancing Translational Sciences (NCATS), 2011):
Values joined by “and” are separate entries in the source; they are usually repeats but may differ in a detail not shown here. Equal entries are not always repeated. This is one part of the list. The main result of the screen is listed elsewhere. These columns were measured beside it and carry no call. The list favours compounds with an active or inconclusive main result. Words in brackets tell the shape of the fitted curve; partial curves, single points and poor fits give uncertain potencies.

Experiment: qHTS Assay to Find Inhibitors of Chronic Active B-Cell Receptor Signaling
Details: ABC-DLBCL IkBa-CBG/CBR reporter, luminescence ratio (green luciferase fused to IkBa over red control in TMD8 lymphoma cells), 4 h
Method in brief: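 TMD8 ABC-DLBCL cells carrying doxycycline-inducible green luciferase fused to IkappaBalpha plus unfused red luciferase were exposed to compounds (up to 46 uM) for 4 hrs at 37C. Activity came from the overlap-corrected green/red luminescence ratio.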

[1] = measured here: CBR red luminescence, cell number
[2] = measured here: IkBa-CBG green luminescence

| Structure (SMILES) | AC50 [1] | AC50 [2] |
| --- | --- | --- |
| On1c(-c2ccc(Cl)cc2)nc2ccccc21 | 7.08 µM [falling, partial curve] |  |
| CC(=O)Nc1cccc(NC(=O)CSc2ccc(C(F)(F)F)cc2[N+](=O)[O-])c1 | 2.82 µM [rising, single point] |  |
| Cn1c(Sc2ccc(C(F)(F)F)cc2[N+](=O)[O-])nnc1-c1ccccc1 | 1.26 µM [falling, partial curve, poor fit] |  |
| O=C(Cc1ccccc1)NCc1ccncc1 | 2.82 µM [falling, full curve] |  |
| O=C(COc1ccc(F)cc1Cl)Nc1ccc(S(=O)(=O)Nc2nccs2)cc1 | 29.1 µM [falling, single point] |  |
| CCN1CCCC1CNC(=O)C(=O)Nc1ccccc1OC (stereo unspecified) | 3.98 µM [falling, partial curve] |  |
| CC(C)/C=C(/C(=O)c1ccc(Cl)cc1Cl)n1cncn1 | 10 µM [falling, partial curve, poor fit] |  |
| CCn1c(=N)c(S(=O)(=O)c2ccc(C)cc2)cc2c(=O)n3ccccc3nc21 | 20 µM [rising, partial curve, poor fit] |  |
| Oc1ccc(Br)cc1CNc1ccccn1 | 1.78 µM [rising, partial curve, poor fit] |  |
| COCCNC(=S)N/N=C(\C)c1ccc(C)c([N+](=O)[O-])c1 |  | 29.1 µM [falling, single point] |
| COc1ccc(-c2cc(C(=O)Nc3cccc(Cl)c3)no2)cc1 | 3.16 µM [falling, partial curve, poor fit] |  |
| CCC(=O)N1CCc2cc(Br)cc(S(=O)(=O)NCC3CCCO3)c21 (stereo unspecified) | 0.164 µM [rising, full curve] |  |
| Cc1ccc2c(c1)[C@H]1[C@H](CO2)[C@H](c2ccccc2)[C@]2(C)C(=O)N(Cc3ccc(Cl)cc3)CC(=O)N12 | 6.51 µM [rising, single point] |  |
| CCOC(=O)c1c(-c2ccc(Cl)cc2)c(C#N)c(=O)n(N)c1N | 10.3 µM [falling, partial curve, poor fit] |  |
| COc1ccccc1/C=N/NC(=O)c1csc(C)c1C | 9.2 µM [falling, partial curve] |  |
| Cc1c(NC(=S)NC(=O)c2cc3ccccc3o2)cccc1C(=O)O | 1.41 µM [falling, partial curve] |  |
| CCOC(=O)C1=C(CSc2nc3c(cc2C#N)CCC3)OC(N)=C(C#N)C1c1ccccc1 (stereo unspecified) | 15.8 µM [falling, partial curve, poor fit] |  |
| CCOCC(=O)Nc1ccc(OCc2ccccc2)cc1 | 15.8 µM [rising, partial curve, poor fit] |  |
| COC(=O)c1cc(NC(=O)c2ccc(Cn3cc(Cl)cn3)o2)cc(C(=O)OC)c1 | 29.1 µM [falling, single point] |  |
| CCOC(=O)c1cc(-c2ccc3c(c2)OCO3)nc2onc(C)c12 | 0.103 µM [rising, full curve, poor fit] |  |
| COc1cccc(/C=N/NC(=O)NC2CCCCC2)c1O | 11.2 µM [falling, partial curve, poor fit] |  |

| Structure (SMILES) | AC50 [1] | AC50 [2] |
| --- | --- | --- |
| Cc1cc(C)n(Cc2nc3ccccc3n2C)n1 | 2.91 µM [rising, partial curve] |  |
| CN(C(=O)COC(=O)c1cc(=O)[nH]c2ccccc12)c1ccccc1 | 29.1 µM [rising, single point] |  |
| COc1cccc(C(=O)Nc2cc(C)c3c(=O)oc4ccccc4c3n2)c1 | 5.62 µM [falling, full curve] |  |
| CCCOC(=O)CCCCC1SCC(NC(=O)OC)C1NC(=O)OC (stereo unspecified) | 35.5 µM [rising, partial curve, poor fit] |  |
| CSCCNC(=O)c1ccc(C(C)(C)C)cc1 | 2.24 µM [rising, full curve, poor fit] |  |
| CCOc1c(Cl)cc(/C=C/C(=O)N(CC)CC(=O)NCc2cccs2)cc1OC | 32.6 µM [rising, partial curve, poor fit] |  |
| O=C(Nc1ccc(Cl)cn1)c1ccc2ccccc2n1 | 1.41 µM [rising, partial curve, poor fit] |  |
| O=C(Nc1cccc2cccnc12)c1cccc(N2C(=O)CCC2=O)c1 | 12.6 µM [falling, partial curve, poor fit] |  |
| COc1ccc(Br)cc1/C=N/NC(=O)c1nc(-c2ccccc2)n2c1CCCCC2 | 1.64 µM [rising, single point] |  |
| O=C1C(=O)N(CCS(=O)(=O)c2ccccc2)c2ccc(Cl)cc21 | 17.8 µM [rising, single point] | 35.5 µM [falling, single point] |
| NC(=O)Cc1ccc(C(=O)c2ccc(Cl)cc2)s1 | 20 µM [falling, partial curve, poor fit] |  |
| CCOC(=O)c1c(NC(=O)COC(=O)CCOc2ccc(OCC)cc2)sc(C(=O)N(C)C)c1C | 25.9 µM [rising, partial curve, poor fit] |  |
| Cn1nnnc1SCCOc1ccc(C#N)cc1 | 12.6 µM [rising, partial curve, poor fit] |  |
| CC1Sc2ccc(S(=O)(=O)CCC(=O)N(C)Cc3ccccc3)cc2NC1=O (stereo unspecified) | 15.8 µM [falling, single point] |  |
| Cc1ccc(/C=C/C(=O)Nc2nnc(SCc3ccc(C#N)cc3)s2)o1 | 29.1 µM [rising, single point] |  |
| O=C(Nc1ccc(Br)cn1)c1ccc([N+](=O)[O-])o1 | 10 µM [falling, partial curve] | 35.5 µM [rising, partial curve, poor fit] |
| CCOC(=O)c1cnn(-c2ccc([N+](=O)[O-])cc2)c1N | 2 µM [rising, full curve] |  |
| COc1ccc(C(=O)Nc2nc3ccccc3s2)cc1 | 2.82 µM [falling, full curve] |  |
| COc1ccc(-c2cc(C(F)F)nc(-n3nc(C)cc3C)n2)cc1 | 11.2 µM [falling, single point] |  |
| COc1ccc(-c2nc(-c3cccs3)c(-c3cccs3)[nH]2)cc1OC | 18.4 µM [falling, partial curve, poor fit] |  |
| COc1ccc(CCNc2ncnc3c2cnn3-c2cccc(Cl)c2)cc1 | 25.1 µM [falling, partial curve, poor fit] |  |

| Structure (SMILES) | AC50 [1] | AC50 [2] |
| --- | --- | --- |
| CCN(CC)c1ccc(C(=O)Nn2c(C)nc3ccccc3c2=O)cc1 | 35.5 µM [rising, single point] |  |
| COc1ccccc1N1CCN(C(=O)c2cn(-c3ccccc3)nc2-c2cccnc2)CC1 | 29.1 µM [rising, single point] |  |
| Cc1cccc2cc(C3CC(c4ccco4)=NN3S(C)(=O)=O)c(Cl)nc12 (stereo unspecified) | 14.1 µM [falling, single point] |  |
| CC1COc2ccccc2N1C(=O)c1cccnc1Cl (stereo unspecified) | 35.5 µM [falling, single point] |  |
| O=C(Cc1cccs1)N/N=C/C=C/c1ccco1 |  | 20.6 µM [falling, partial curve, poor fit] |
| N#CCSc1nc(N)c(C#N)c(C2CCCCC2)c1C#N | 12.6 µM [rising, partial curve, poor fit] | 10 µM [falling, partial curve] |
| CC1CCCC(NC(=O)c2cccc(N3CCCC3=O)c2)C1C (stereo unspecified) | 20 µM [falling, partial curve, poor fit] |  |
| COCCNC(=O)C(=O)Nc1cccc(Br)c1 | 29.1 µM [falling, single point] |  |
| CC[C@]12c3[nH]c4cc(CCC(=O)N(C)C)ccc4c3CCN1C(=O)[C@@H](CC(=O)NCC13CC4CC(CC(C4)C1)C3)C[C@@H]2C(=O)N1CCN(C(=O)c2ccco2)CC1 | 1.64 µM [rising, partial curve] | 18.4 µM [falling, partial curve] |
| O=C(Nc1cc(N2CCCCC2)ncn1)c1ccccc1 | 11.2 µM [falling, single point] |  |
| Cc1ccccc1-n1c(SCC(=O)N(C)C2CCS(=O)(=O)C2)nc2ccccc2c1=O (stereo unspecified) | 7.94 µM [rising, partial curve, poor fit] |  |
| CC(C)Cn1c(SC(C)C(=O)NC2CC2)nnc1-c1ccccc1F (stereo unspecified) | 29.1 µM [rising, partial curve, poor fit] |  |
| COC(=O)c1cc(-c2ccc(Cl)cc2)n[nH]1 | 2 µM [rising, partial curve, poor fit] |  |
| CCCCCCOC(=O)C(C#N)c1nc2ccccc2nc1N1CCN(C)CC1 (stereo unspecified) | 29.1 µM [falling, single point] and 1.58 µM [falling, full curve, poor fit] |  |
| Cc1cccc(NC(=O)CSc2nnc(CNC(=O)c3ccco3)n2C)c1 | 20 µM [rising, partial curve, poor fit] |  |
| COCc1ccc(CN2CCCCC2C(=O)Nc2ccc(Oc3ccccc3)nc2)o1 (stereo unspecified) | 11.2 µM [rising, single point] |  |
| N/C(=N\OC(=O)c1ccco1)c1cccc(Br)c1 | 0.517 µM [rising, full curve] |  |
| O=C(CSc1nnc(-c2cccnc2)s1)Nc1cccc(C(=O)O)c1 | 10.3 µM [falling, partial curve, poor fit] |  |
| CC(C)[C@@H](COc1ccccc1)N1CCN(Cc2ccccc2)CCC1=O | 11.2 µM [falling, partial curve, poor fit] |  |
| N#CC(C#N)=C/C=C(\Nc1ccc(Cl)cc1)c1ccc(Cl)cc1 | 10 µM [falling, partial curve] |  |

Given bar-delimited: entries from further up.
Structure (SMILES) | AC50 [1] | AC50 [2]
CC(C)/C=C(/C(=O)c1ccc(Cl)cc1Cl)n1cncn1 | 10 µM [falling, partial curve, poor fit] | 
COc1ccc(-c2cc(C(=O)Nc3cccc(Cl)c3)no2)cc1 | 3.16 µM [falling, partial curve, poor fit] | 
CCOC(=O)c1c(-c2ccc(Cl)cc2)c(C#N)c(=O)n(N)c1N | 10.3 µM [falling, partial curve, poor fit] | 
CCOC(=O)c1cc(-c2ccc3c(c2)OCO3)nc2onc(C)c12 | 0.103 µM [rising, full curve, poor fit] | 
COc1cccc(C(=O)Nc2cc(C)c3c(=O)oc4ccccc4c3n2)c1 | 5.62 µM [falling, full curve] | 
O=C(Nc1cccc2cccnc12)c1cccc(N2C(=O)CCC2=O)c1 | 12.6 µM [falling, partial curve, poor fit] | 
NC(=O)Cc1ccc(C(=O)c2ccc(Cl)cc2)s1 | 20 µM [falling, partial curve, poor fit] | 
CCOC(=O)c1c(NC(=O)COC(=O)CCOc2ccc(OCC)cc2)sc(C(=O)N(C)C)c1C | 25.9 µM [rising, partial curve, poor fit] | 
CC1Sc2ccc(S(=O)(=O)CCC(=O)N(C)Cc3ccccc3)cc2NC1=O (stereo unspecified) | 15.8 µM [falling, single point] | 
CCOC(=O)c1cnn(-c2ccc([N+](=O)[O-])cc2)c1N | 2 µM [rising, full curve] | 
O=C(Cc1cccs1)N/N=C/C=C/c1ccco1 |  | 20.6 µM [falling, partial curve, poor fit]
CC1CCCC(NC(=O)c2cccc(N3CCCC3=O)c2)C1C (stereo unspecified) | 20 µM [falling, partial curve, poor fit] | 
COCCNC(=O)C(=O)Nc1cccc(Br)c1 | 29.1 µM [falling, single point] | 
O=C(Nc1cc(N2CCCCC2)ncn1)c1ccccc1 | 11.2 µM [falling, single point] | 
Cc1ccccc1-n1c(SCC(=O)N(C)C2CCS(=O)(=O)C2)nc2ccccc2c1=O (stereo unspecified) | 7.94 µM [rising, partial curve, poor fit] | 
COC(=O)c1cc(-c2ccc(Cl)cc2)n[nH]1 | 2 µM [rising, partial curve, poor fit] | 
CC(C)[C@@H](COc1ccccc1)N1CCN(Cc2ccccc2)CCC1=O | 11.2 µM [falling, partial curve, poor fit] | 
